# From the supplement of paper PMC12823440, “Inhibitors supercharge kinase turnover through native proteolytic circuits” (Nature, 2025)
# Sequences of proteins named here, by UniProt entry; tags and fusion partners are left off. A change or cut given only in a name is not applied to a line headed by its entry.
# UniProt Q9UQM7, whole entry: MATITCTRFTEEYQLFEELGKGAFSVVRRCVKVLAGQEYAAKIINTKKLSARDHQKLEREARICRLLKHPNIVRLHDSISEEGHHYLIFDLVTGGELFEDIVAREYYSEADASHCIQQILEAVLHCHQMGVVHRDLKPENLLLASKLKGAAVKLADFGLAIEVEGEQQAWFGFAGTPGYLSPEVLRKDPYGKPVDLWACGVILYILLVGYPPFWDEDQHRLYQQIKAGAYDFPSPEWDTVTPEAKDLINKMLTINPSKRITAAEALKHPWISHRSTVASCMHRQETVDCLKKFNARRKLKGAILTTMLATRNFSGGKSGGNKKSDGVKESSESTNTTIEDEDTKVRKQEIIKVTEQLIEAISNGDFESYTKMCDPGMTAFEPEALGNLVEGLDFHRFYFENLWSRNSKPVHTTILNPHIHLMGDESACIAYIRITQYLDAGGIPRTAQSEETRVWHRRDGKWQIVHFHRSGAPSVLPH
# UniProt Q13555: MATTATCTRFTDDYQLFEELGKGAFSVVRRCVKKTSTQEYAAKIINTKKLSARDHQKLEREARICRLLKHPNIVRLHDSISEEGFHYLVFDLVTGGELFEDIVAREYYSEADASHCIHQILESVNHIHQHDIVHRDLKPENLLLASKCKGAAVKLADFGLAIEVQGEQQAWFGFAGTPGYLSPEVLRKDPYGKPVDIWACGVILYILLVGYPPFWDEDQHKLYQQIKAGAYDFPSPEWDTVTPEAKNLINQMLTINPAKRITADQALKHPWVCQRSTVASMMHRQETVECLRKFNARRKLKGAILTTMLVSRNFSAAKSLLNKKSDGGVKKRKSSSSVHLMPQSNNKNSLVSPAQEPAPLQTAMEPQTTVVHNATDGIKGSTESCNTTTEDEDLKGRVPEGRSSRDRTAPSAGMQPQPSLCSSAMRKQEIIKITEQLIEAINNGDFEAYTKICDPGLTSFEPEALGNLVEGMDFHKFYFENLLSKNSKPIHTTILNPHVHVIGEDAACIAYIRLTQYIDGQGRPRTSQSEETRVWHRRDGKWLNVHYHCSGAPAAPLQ
# UniProt Q15131: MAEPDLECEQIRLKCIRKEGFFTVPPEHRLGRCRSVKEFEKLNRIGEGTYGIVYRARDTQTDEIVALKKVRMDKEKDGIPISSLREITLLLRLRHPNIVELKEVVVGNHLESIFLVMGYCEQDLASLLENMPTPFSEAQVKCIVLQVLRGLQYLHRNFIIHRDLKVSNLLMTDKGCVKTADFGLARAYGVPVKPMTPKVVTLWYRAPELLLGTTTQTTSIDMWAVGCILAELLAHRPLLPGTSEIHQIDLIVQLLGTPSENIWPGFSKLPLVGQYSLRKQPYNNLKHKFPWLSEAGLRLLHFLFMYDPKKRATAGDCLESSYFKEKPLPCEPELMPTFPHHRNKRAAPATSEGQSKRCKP
# UniProt Q00526: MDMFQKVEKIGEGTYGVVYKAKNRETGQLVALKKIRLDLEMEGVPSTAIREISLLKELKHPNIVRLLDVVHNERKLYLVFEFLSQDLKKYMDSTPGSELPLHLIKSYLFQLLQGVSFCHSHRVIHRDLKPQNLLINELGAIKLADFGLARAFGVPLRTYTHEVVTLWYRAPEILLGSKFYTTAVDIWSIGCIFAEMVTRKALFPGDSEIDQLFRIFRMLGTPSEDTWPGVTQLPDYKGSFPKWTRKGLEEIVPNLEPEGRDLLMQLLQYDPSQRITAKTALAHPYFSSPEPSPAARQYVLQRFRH
# UniProt Q00535, whole entry, looked up: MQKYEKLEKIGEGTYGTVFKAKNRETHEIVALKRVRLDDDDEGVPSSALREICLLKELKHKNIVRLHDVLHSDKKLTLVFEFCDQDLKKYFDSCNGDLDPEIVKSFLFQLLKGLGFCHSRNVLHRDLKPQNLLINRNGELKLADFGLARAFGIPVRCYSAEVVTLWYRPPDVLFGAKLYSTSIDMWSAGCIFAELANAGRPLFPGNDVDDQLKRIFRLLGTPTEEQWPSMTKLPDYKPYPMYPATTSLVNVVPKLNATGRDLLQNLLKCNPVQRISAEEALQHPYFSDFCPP
# UniProt Q00534, whole entry: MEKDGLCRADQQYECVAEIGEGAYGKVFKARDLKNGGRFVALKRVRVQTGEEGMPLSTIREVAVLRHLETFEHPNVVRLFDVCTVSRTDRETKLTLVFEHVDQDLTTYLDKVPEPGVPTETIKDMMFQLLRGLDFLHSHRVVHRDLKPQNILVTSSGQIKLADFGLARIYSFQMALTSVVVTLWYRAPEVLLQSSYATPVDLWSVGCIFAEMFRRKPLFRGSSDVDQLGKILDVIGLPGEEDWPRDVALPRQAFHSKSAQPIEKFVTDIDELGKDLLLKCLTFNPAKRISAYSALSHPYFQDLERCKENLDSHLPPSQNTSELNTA
# UniProt O96017, whole entry: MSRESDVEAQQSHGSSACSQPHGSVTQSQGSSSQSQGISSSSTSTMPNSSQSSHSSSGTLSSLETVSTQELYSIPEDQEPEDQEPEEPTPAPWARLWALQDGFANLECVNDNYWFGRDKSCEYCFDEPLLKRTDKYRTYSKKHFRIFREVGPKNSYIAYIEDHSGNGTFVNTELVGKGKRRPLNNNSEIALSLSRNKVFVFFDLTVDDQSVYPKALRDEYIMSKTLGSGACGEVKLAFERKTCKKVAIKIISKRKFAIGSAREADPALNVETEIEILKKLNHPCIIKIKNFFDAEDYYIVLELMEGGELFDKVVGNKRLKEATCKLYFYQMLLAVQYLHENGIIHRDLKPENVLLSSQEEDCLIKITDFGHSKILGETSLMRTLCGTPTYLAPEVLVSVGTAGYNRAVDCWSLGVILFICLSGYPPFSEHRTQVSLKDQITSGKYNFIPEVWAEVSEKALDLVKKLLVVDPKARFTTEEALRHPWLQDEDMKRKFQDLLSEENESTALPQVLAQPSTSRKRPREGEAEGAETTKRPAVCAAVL
# UniProt P07333, whole entry: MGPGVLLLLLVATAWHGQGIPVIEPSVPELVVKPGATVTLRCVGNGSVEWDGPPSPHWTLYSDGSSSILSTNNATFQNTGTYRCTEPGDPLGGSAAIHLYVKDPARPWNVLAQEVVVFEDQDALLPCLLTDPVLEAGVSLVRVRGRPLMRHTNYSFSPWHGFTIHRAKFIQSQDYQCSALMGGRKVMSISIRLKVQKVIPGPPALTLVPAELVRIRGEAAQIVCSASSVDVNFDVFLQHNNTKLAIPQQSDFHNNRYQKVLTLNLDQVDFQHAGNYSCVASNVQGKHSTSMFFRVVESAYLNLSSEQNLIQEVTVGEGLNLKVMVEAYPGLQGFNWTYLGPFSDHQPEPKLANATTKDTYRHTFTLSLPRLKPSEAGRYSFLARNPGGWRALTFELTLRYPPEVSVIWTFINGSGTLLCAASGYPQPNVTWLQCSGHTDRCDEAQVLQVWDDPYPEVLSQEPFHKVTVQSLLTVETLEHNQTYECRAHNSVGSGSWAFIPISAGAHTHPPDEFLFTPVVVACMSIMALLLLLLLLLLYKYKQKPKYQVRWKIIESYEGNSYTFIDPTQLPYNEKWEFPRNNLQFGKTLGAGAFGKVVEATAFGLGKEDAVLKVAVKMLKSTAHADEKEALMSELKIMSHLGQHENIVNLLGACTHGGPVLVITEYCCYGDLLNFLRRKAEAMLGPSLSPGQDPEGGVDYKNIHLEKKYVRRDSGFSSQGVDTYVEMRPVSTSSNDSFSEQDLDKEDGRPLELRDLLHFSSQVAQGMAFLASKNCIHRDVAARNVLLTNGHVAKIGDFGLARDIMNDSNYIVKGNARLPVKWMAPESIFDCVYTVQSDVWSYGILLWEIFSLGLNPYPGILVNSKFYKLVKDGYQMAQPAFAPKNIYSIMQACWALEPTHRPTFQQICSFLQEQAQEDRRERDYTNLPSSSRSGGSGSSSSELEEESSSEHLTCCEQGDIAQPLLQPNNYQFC
# UniProt P41240: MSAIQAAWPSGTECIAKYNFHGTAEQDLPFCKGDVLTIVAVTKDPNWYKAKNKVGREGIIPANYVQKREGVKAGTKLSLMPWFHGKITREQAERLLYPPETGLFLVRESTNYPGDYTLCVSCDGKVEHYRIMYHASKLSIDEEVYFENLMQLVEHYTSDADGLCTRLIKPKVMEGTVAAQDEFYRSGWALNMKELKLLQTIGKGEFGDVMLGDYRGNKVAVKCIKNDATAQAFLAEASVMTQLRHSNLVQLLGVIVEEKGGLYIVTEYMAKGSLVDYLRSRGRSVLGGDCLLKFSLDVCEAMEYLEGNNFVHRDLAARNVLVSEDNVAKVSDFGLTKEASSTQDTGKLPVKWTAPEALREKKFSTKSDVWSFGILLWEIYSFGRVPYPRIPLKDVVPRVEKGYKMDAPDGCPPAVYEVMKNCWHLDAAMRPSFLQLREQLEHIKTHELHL
# UniProt P48729: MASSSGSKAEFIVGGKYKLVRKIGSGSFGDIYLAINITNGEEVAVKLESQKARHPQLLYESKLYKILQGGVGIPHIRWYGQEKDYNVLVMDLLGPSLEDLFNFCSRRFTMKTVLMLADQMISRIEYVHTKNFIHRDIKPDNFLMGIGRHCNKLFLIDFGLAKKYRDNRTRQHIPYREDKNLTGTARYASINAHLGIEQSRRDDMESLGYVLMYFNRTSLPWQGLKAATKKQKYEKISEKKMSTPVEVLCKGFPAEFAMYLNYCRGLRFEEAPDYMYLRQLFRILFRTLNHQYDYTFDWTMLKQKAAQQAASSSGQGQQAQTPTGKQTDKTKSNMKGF
# UniProt P48730: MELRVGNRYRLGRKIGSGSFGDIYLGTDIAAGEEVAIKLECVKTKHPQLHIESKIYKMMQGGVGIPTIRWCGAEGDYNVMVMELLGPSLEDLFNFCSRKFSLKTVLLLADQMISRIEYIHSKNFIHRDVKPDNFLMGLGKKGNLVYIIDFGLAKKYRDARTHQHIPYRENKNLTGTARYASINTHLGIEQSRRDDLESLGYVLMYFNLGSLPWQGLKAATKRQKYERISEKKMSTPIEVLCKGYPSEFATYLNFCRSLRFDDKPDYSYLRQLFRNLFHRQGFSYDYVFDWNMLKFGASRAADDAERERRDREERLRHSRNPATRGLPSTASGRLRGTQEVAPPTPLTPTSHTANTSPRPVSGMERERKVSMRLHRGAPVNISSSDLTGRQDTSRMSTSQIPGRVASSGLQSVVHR
# UniProt Q9Y463, whole entry, looked up: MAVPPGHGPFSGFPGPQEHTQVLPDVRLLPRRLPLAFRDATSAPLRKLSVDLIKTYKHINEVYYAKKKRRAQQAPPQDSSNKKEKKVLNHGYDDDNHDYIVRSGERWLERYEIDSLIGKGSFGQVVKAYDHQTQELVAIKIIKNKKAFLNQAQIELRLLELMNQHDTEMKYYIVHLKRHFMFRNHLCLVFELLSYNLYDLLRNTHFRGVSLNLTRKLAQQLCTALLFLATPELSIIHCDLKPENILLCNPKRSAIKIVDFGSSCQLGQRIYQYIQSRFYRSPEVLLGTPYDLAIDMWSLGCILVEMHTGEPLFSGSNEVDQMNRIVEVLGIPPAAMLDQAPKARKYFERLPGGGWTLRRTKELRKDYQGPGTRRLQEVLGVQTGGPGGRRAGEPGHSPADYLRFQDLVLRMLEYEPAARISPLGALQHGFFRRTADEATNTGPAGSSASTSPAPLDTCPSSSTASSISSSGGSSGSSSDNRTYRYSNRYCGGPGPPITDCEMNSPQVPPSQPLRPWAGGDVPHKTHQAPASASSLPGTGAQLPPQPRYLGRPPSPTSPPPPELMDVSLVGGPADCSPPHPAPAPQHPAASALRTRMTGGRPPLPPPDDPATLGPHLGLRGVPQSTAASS
# UniProt Q92630: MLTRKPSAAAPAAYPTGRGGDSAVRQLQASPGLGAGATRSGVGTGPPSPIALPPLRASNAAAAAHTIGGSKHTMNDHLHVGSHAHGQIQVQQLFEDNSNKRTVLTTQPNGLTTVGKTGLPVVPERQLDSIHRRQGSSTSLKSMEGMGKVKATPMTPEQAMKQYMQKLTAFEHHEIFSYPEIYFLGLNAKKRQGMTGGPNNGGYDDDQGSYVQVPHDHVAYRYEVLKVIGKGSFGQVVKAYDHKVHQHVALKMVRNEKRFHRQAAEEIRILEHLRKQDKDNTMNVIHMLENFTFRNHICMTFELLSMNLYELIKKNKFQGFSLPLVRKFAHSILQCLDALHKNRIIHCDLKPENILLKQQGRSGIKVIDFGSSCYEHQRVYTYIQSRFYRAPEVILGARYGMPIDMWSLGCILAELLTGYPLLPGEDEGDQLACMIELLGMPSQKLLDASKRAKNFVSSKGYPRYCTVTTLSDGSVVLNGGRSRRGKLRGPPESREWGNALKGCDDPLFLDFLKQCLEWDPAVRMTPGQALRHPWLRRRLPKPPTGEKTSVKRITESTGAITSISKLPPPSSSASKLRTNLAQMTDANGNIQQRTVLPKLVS
# Counter-ions that a name gives are not always drawn. The list shows a part of the results. Hit calls seldom repeat between salt and free forms of one compound.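 Kinases, fused to nanoluciferase, were expressed in K562 cells; luminescence was measured every 4 h from 2 to 18 h as percent of control (DMSO = 100%, positive control = 0%). A time point is decreased if signal falls significantly (2 sigma). Hits were called by the authors by a rule that is not shown; the count of time points alone does not decide it.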
# Key:
# Test in all cases: number of time points (of 5) at which kinase-Nluc abundance scored as decreased, DMSO-normalised (count); higher = more persistent destabilization
# Details in all cases: K562; 2-18 h
# CAMK2A = CAMK2A (UniProt Q9UQM7)
# CAMK2G = CAMK2G (UniProt Q13555)
# CDK10 = CDK10 (UniProt Q15131)
# CDK2 = CDK2 (UniProt P24941)
# CDK3 = CDK3 (UniProt Q00526)
# CDK5 = CDK5 (UniProt Q00535)
# CDK6 = CDK6 (UniProt Q00534)
# CHEK2 = CHEK2 (UniProt O96017)
# CSF1R = CSF1R (UniProt P07333)
# CSK = CSK (UniProt P41240)
# CSNK1A1 = CSNK1A1 (UniProt P48729)
# CSNK1D = CSNK1D (UniProt P48730)
# DDR1 = DDR1 (UniProt Q08345)
# DYRK1B = DYRK1B (UniProt Q9Y463)
# DYRK2 = DYRK2 (UniProt Q92630)
# EGFR = EGFR (UniProt P00533)
# EGFR_G719S = EGFR_G719S (UniProt P00533)
# EGFR_G719S_T790M = EGFR_G719S_T790M (UniProt P00533)
# EGFR_L718V = EGFR_L718V (UniProt P00533)
# EGFR_L858R = EGFR_L858R (UniProt P00533)
Structure (SMILES),number of time points (CAMK2A),number of time points (CAMK2G),number of time points (CDK10),number of time points (CDK2),number of time points (CDK3),number of time points (CDK5),number of time points (CDK6),number of time points (CHEK2),number of time points (CSF1R),number of time points (CSK),number of time points (CSNK1A1),number of time points (CSNK1D),number of time points (DDR1),number of time points (DYRK1B),number of time points (DYRK2),number of time points (EGFR),number of time points (EGFR_G719S),number of time points (EGFR_G719S_T790M),number of time points (EGFR_L718V),number of time points (EGFR_L858R)
COc1ccc(-c2ccc3c(N4CCOCC4)nc(N4C[C@@H](C)O[C@@H](C)C4)nc3n2)cc1CO (2.5 µM),0,0,0,0,0,0,0,0,0,0,0,0,0,0,0,0,0,0,0,0
CC1=C(C(=O)O)N2C(=O)[C@@H](NC(=O)[C@H](N)C3=CCC=CC3)[C@H]2SC1 [Cephradine] (10 µM),0,0,0,0,0,0,0,0,0,0,0,0,0,0,0,0,0,0,0,0
CC1(C)C(O[C@@H]2OC[C@@H](O)[C@H](O)[C@H]2O)CC[C@]23CC24CC[C@]2(C)[C@@H]([C@@]5(C)CC[C@@H](C(C)(C)O)O5)[C@H](O)C[C@@]2(C)C4C[C@@H](O[C@@H]2O[C@H](CO)[C@@H](O)[C@H](O)[C@H]2O)C13 (stereo not given in full) [Astragaloside IV] (10 µM),0,0,0,0,0,0,0,0,0,0,0,0,0,0,0,0,0,0,0,0
Cc1nc(-c2cn3c(n2)-c2ccc(-c4cnn(C(C)(C)C(N)=O)c4)cc2OCC3)n(C(C)C)n1 [Taselisib] (10 µM),0,0,0,0,0,0,0,0,0,0,0,0,1,0,0,0,0,0,0,0
Cc1nc2sccn2c(=O)c1CCN1CCC(=C(c2ccccc2)c2ccc(F)cc2)CC1 (10 µM),0,0,0,0,0,0,0,0,0,0,0,0,0,0,0,0,0,0,0,0
N#Cc1c(C2CCNCC2)cc(-c2c(O)cccc2OCC2CC2)nc1N [ACHP (Hydrochloride)] (10 µM),0,0,0,0,0,0,0,0,0,0,0,0,0,0,0,0,0,0,0,0
COc1ccc(OC)c(C2C(C#N)=C(N)Oc3n[nH]c(-c4ccc5ccccc5c4)c32)c1 (stereo not given) (10 µM),0,0,0,0,0,0,0,0,0,0,0,0,0,0,0,0,0,0,0,0
CNC(=O)c1c(F)cccc1Nc1nc(Nc2cc3c(cc2OC)CCN3C(=O)CN(C)C)nc2[nH]ccc12 (10 µM),0,0,0,0,0,0,0,0,0,0,0,0,0,0,0,1,1,0,0,0
Cc1ccc(CNc2ncnc3ccc(-c4ccc(CO)o4)cc23)o1 (10 µM),0,0,0,0,0,0,0,0,0,0,0,0,0,0,0,0,0,0,0,0
Cc1cc2ncc(-c3ccc(O)c(O)c3)nc2cc1C [Tyrphostin AG1433] (10 µM),0,0,0,0,0,0,0,0,0,0,0,0,0,0,0,0,0,0,0,0
C=CC(=O)Nc1cc(Nc2ncc(Cl)c(-c3c[nH]c4ccccc34)n2)c(OC)cc1N(C)CCN(C)C [Mutant EGFR inhibitor] (2.5 µM),0,0,0,0,0,0,0,1,0,0,0,0,3,1,3,0,0,0,0,0
Cn1cnc2c(F)c(Nc3ccc(Br)cc3Cl)c(C(=O)NOCCO)cc21 [Selumetinib (sulfate)] (10 µM),0,0,0,0,0,0,0,0,0,0,0,0,0,0,0,0,0,0,0,0
C=CC(=O)Nc1ccc(CN2C(=O)N(c3cc(OC)cc(OC)c3)Cc3cnc(Nc4ccc(N5CCN(C)CC5)cc4)nc32)cc1 (2.5 µM),0,0,0,0,0,0,0,0,0,0,0,0,0,0,0,0,0,0,0,0
FC(F)(c1ccc2ncccc2c1)c1nnc2ccc(-c3ccncc3)nn12 (10 µM),0,0,0,0,0,0,0,0,0,0,0,0,0,0,0,0,0,0,0,0
Cc1c(-c2c(F)cc(C(N)=O)c3[nH]c4c(c23)CC[C@H](C(C)(C)O)C4)cccc1-n1c(=O)c2cccc(F)c2n(C)c1=O (2.5 µM),0,0,0,0,0,0,0,0,0,0,0,0,0,0,0,0,0,0,0,0
CC[C@@H](Oc1nc(Oc2cc(C)cc(-c3cccc(CN)c3)c2)c(F)cc1F)C(=O)O (10 µM),0,0,0,0,0,0,0,0,0,0,0,0,0,0,0,0,0,0,0,0
CCN1CCC(n2cc(CNc3cc(Cl)c4ncc(C#N)c(Nc5ccc(F)c(Cl)c5)c4c3)nn2)CC1 [Cot inhibitor-2] (2.5 µM),0,0,0,0,0,0,0,0,0,0,0,0,0,0,0,0,0,0,0,0
CCOc1ccc2cc(-c3nn(CC4CCN(C)CC4)c4ncnc(N)c34)ccc2n1 (10 µM),0,0,0,0,0,0,0,0,0,0,0,0,0,0,0,0,0,0,0,0
Nc1ccc(-c2cnc(N)c(-c3ccc(Cl)cc3)c2)cn1 (10 µM),0,0,0,0,0,0,0,0,0,0,0,0,0,0,0,0,0,0,0,0
O=C(N/N=C/c1coc2ccccc2c1=O)c1cccnc1 (10 µM),0,0,0,0,0,0,0,0,0,0,0,0,0,0,0,0,0,0,0,0
CN1CCN(c2cccc(Nc3nc4c(-c5ccc(S(C)(=O)=O)cc5)cccn4n3)c2)CC1 (10 µM),0,0,0,0,0,0,0,0,0,0,0,0,0,0,0,0,0,0,0,0
CCC(C)N1c2ccccc2C(=O)N(C)c2cnc(Nc3ccc(C(=O)N4CCC(N5CCN(C)CC5)CC4)cc3OC)nc21 (stereo not given) (2.5 µM),0,0,0,0,0,0,0,0,0,0,0,0,0,0,0,0,0,0,0,0
O=S(=O)(NCCCN1c2ccccc2CCc2ccc(Cl)cc21)c1ccc(OC(F)(F)F)cc1 (2.5 µM),0,0,0,0,0,0,0,0,0,0,0,0,0,0,0,0,0,0,0,0
C=CC(=O)Nc1cc(C)ccc1Nc1nc(Nc2cc(OC)ncc2C)ncc1C(F)(F)F (10 µM),0,0,0,0,0,0,0,0,0,0,0,0,0,0,0,0,0,0,0,0

# Whole records from above. Values in the order: number of time points (CAMK2A) | number of time points (CAMK2G) | number of time points (CDK10) | number of time points (CDK2) | number of time points (CDK3) | number of time points (CDK5) | number of time points (CDK6) | number of time points (CHEK2) | number of time points (CSF1R) | number of time points (CSK) | number of time points (CSNK1A1) | number of time points (CSNK1D) | number of time points (DDR1) | number of time points (DYRK1B) | number of time points (DYRK2) | number of time points (EGFR) | number of time points (EGFR_G719S) | number of time points (EGFR_G719S_T790M) | number of time points (EGFR_L718V) | number of time points (EGFR_L858R)
# `CC1(C)C(O[C@@H]2OC[C@@H](O)[C@H](O)[C@H]2O)CC[C@]23CC24CC[C@]2(C)[C@@H]([C@@]5(C)CC[C@@H](C(C)(C)O)O5)[C@H](O)C[C@@]2(C)C4C[C@@H](O[C@@H]2O[C@H](CO)[C@@H](O)[C@H](O)[C@H]2O)C13` (stereo not given in full) [Astragaloside IV] (10 µM) in the list: 0 | 0 | 0 | 0 | 0 | 0 | 0 | 0 | 0 | 0 | 0 | 0 | 0 | 0 | 0 | 0 | 0 | 0 | 0 | 0
# `COc1ccc(-c2ccc3c(N4CCOCC4)nc(N4C[C@@H](C)O[C@@H](C)C4)nc3n2)cc1CO` (2.5 µM) in the list: 0 | 0 | 0 | 0 | 0 | 0 | 0 | 0 | 0 | 0 | 0 | 0 | 0 | 0 | 0 | 0 | 0 | 0 | 0 | 0
